PubChem BioAssay AID1259308 – NCATS | 2017
The deposit covers about 59,000 reagents; shown is a random part of them. About 1,510 of all reagents (2.6%) were called active. 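Calls use total luciferase alone and ignore viability, so some active siRNAs may act by altering cell number.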 Entries without a mark were called inactive. Reagents against one gene are numbered here. Further read-outs or replicates are left out here.

- Purpose: 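Knock-downs that increase output of a recombinant reporter protein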 (primary screen)
- System: human HEK293 embryonic kidney cells stably expressing firefly luciferase (HEK-CMV-Luc2-Hygro)
- Reagents: single siRNA against human genes, 0.8 pmol siRNA per well
- Duration: 72 h
- Read-out: 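Luciferase light (ONE-Glo) measured on one replicate plate set and viability (CellTiter-Glo) on the other, scaled to a negative control siRNA, with robust z-scores and luciferase per cell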
- Direction: total luciferase, z-score and total luciferase, % of control: higher = more reporter protein produced
- Rule for the call: 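An siRNA counts as active if its total luciferase robust z-score exceeds 3; genes with two or more such siRNAs out of three were retested with fresh siRNAs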
- Calls: active = raised luciferase; inactive = no rise

no.	target gene	reagent no.	total luciferase, z-score	total luciferase, % of control
1	ATPAF1	1	-1.65	49.1
2	ATPAF1	2	2.16	125
3	ATPAF1	3	0.693	95.7
4	MAK16	1	-2.54	31.5
5	MAK16	2	-2.2	38.1
6	MAK16	3	-2.14	39.3
7	ADAMTS14	1	2.96	141
8	ADAMTS14	2	-0.709	67.8
9	ADAMTS14	3	2.16	125
10	LOC643855	1	-0.0466	81
11	LOC643855	2	0.863	99.1
12	LOC643855	3	2.7	136

In a second layout: results already given
target gene	reagent no.	total luciferase, z-score	total luciferase, % of control
MAK16	1	-2.54	31.5
MAK16	2	-2.2	38.1
MAK16	3	-2.14	39.3

More records follow.
no.	target gene	reagent no.	total luciferase, z-score	total luciferase, % of control
13	SLC30A8	1	1.21	106
14	SLC30A8	2	-0.883	64.3
15	SLC30A8	3	-1.66	48.8
16	HSPA6	1	-0.343	75.1
17	HSPA6	2	-0.439	73.1
18	HSPA6	3	0.256	87
19	NINJ1	1	-1.48	52.4
20	NINJ1	2	-0.525	71.4
21	NINJ1	3	-2.26	36.9
22	DKK2	1	-0.912	63.8
23	DKK2	2	1.23	106
24	DKK2	3	0.997	102
